The values that follow come from EP4578918A1, “PHOTOSENSITIZERS FOR PHOTOPOLYMERIZATION” (IGM Group B.V., priority 2023, dated 2025).

This data set in a line: Yellow Index (YI) of cured coating, ASTM E313.
Setting [1] is: photoinitiator alone, 4 wt%, no photosensitizer, Lamp 1 (UV Hg lamp, 120 W/cm).
Setting [2] is: photoinitiator alone, 4 wt%, no photosensitizer, Lamp 2 (UV LED 395 nm, 16 W/cm^2).
Setting [3] is: photoinitiator alone, 4 wt%, no photosensitizer, Lamp 3 (UV LED 365 nm, 16 W/cm^2).
[4] abbreviates: photoinitiator alone, 5 wt%, no photosensitizer, Lamp 1 (UV Hg lamp, 120 W/cm).
The mark [5] stands for this setting: photoinitiator alone, 5 wt%, no photosensitizer, Lamp 2 (UV LED 395 nm, 16 W/cm^2).
Setting [6] is: photoinitiator alone, 5 wt%, no photosensitizer, Lamp 3 (UV LED 365 nm, 16 W/cm^2).
[7] abbreviates: 4 wt% PI-1 + 1 wt% photosensitizer, Lamp 1 (UV Hg lamp, 120 W/cm), 24 hours after crosslinking.
Where [8] appears, read: 4 wt% PI-1 + 1 wt% photosensitizer, Lamp 2 (UV LED 395 nm, 16 W/cm^2), 24 hours after crosslinking.
Setting [9] is: 4 wt% PI-1 + 1 wt% photosensitizer, Lamp 3 (UV LED 365 nm, 16 W/cm^2), 24 hours after crosslinking.
The mark [10] stands for this setting: 4 wt% PI-2 + 1 wt% photosensitizer, Lamp 1 (UV Hg lamp, 120 W/cm), 24 hours after crosslinking.
The mark [11] stands for this setting: 4 wt% PI-2 + 1 wt% photosensitizer, Lamp 2 (UV LED 395 nm, 16 W/cm^2), 24 hours after crosslinking.
The mark [12] stands for this setting: 4 wt% PI-2 + 1 wt% photosensitizer, Lamp 3 (UV LED 365 nm, 16 W/cm^2), 24 hours after crosslinking.

Consider `Cc1cc(C)c(C(=O)P(=O)(C(=O)c2c(C)cc(C)cc2C)c2ccccc2)c(C)c1` [PI-1, bis(2,4,6-trimethylbenzoyl) phenylphosphine oxide, reference compound], for which the yellow index reads like this: under setting [1], 2.84; under setting [2], 1.63; under setting [3], 2.04; under setting [4], 3.64; under setting [5], 2.68; under setting [6], 2.84.
In the case of `CCCCC(CC)CSc1ccc2cc(-c3ccccc3)c(=O)oc2c1` (centres unmarked) [S2], the yellow index was found to be 2.45 under setting [7]; 1.77 under setting [8]; 1.83 under setting [9]; 2.20 under setting [10]; 1.40 under setting [11]; 1.35 under setting [12].
`Cc1cc(C)c(C(=O)P(=O)(c2ccccc2)c2ccccc2)c(C)c1` [PI-3, 2,4,6-trimethylbenzoyl-diphenyl phosphine oxide, reference compound]: the yellow index by setting is: under setting [1], 0.67; under setting [2], 0.92; under setting [3], 0.93; under setting [4], 0.82; under setting [5], 0.62; under setting [6], 1.02.
With `CCSc1ccc2cc(-c3ccccc3)c(=O)oc2c1` [S1], the yellow index came out at 2.82 under setting [7]; 1.74 under setting [8]; 1.64 under setting [9]; 2.82 under setting [10]; 0.73 under setting [11]; 0.57 under setting [12]. Moreover, the yellow index is given as 0.45 (4 wt% PI-3 + 1 wt% photosensitizer, Lamp 1 (UV Hg lamp, 120 W/cm), 24 hours after crosslinking); 0.93 (4 wt% PI-3 + 1 wt% photosensitizer, Lamp 2 (UV LED 395 nm, 16 W/cm^2), 24 hours after crosslinking); 1.00 (4 wt% PI-3 + 1 wt% photosensitizer, Lamp 3 (UV LED 365 nm, 16 W/cm^2), 24 hours after crosslinking); 0.59 (4 wt% PI-4 + 1 wt% photosensitizer, Lamp 1 (UV Hg lamp, 120 W/cm), 24 hours after crosslinking); 1.10 (4 wt% PI-4 + 1 wt% photosensitizer, Lamp 2 (UV LED 395 nm, 16 W/cm^2), 24 hours after crosslinking); 0.78 (4 wt% PI-4 + 1 wt% photosensitizer, Lamp 3 (UV LED 365 nm, 16 W/cm^2), 24 hours after crosslinking). The yellow index is, setting by setting: (4 wt% PI-5 + 1 wt% photosensitizer, Lamp 1 (UV Hg lamp, 120 W/cm), 24 hours after crosslinking) 2.42; (4 wt% PI-5 + 1 wt% photosensitizer, Lamp 2 (UV LED 395 nm, 16 W/cm^2), 24 hours after crosslinking) 1.62; (4 wt% PI-5 + 1 wt% photosensitizer, Lamp 3 (UV LED 365 nm, 16 W/cm^2), 24 hours after crosslinking) 1.02.
On to `CN(C)CCSc1ccc2cc(-c3ccccc3)c(=O)oc2c1` [S4], for which the yellow index runs as follows: under setting [7], 3.77; under setting [8], 2.00; under setting [9], 2.22; under setting [10], 2.46; under setting [11], 1.24; under setting [12], 1.28.
Regarding `Cc1c(-c2ccccc2)c(=O)oc2cc(SCCO)ccc12` [S6], the yellow index by setting is: under setting [7], 2.57; under setting [8], 1.31; under setting [9], 1.33; under setting [10], 2.13; under setting [11], 1.45; under setting [12], 1.17.
Take `CCCCCCCCP(=O)(C(=O)c1c(C)cc(C)cc1C)C(=O)c1c(C)cc(C)cc1C` [PI-2, bis(2,4,6-trimethylbenzoyl) octylphosphine oxide, reference compound]: the yellow index reads like this: under setting [1], 2.20; under setting [2], 0.59; under setting [3], 0.60; under setting [4], 3.01; under setting [5], 1.22; under setting [6], 1.06.
For the molecule `COc1cccc(OC)c1C(=O)P(=O)(CC(C)CC(C)(C)C)C(=O)c1c(OC)cccc1OC` (centres unmarked) [PI-5, bis(2,6-dimethoxybenzoyl)-2,4,-trimethylpentylphsophine oxide, reference compound], the yellow index reads like this: under setting [1], 2.63; under setting [2], 2.19; under setting [3], 2.37; under setting [4], 2.93; under setting [5], 2.52; under setting [6], 2.33.
In the case of `CCSc1ccc2ccc(=O)oc2c1` [S9], the yellow index under setting [7] worked out at 2.17; the yellow index under setting [8] is on record as 1.20; the yellow index under setting [9] came to 1.67; the yellow index under setting [10] worked out at 2.84; the yellow index under setting [11] amounted to 0.90; the yellow index under setting [12] worked out at 1.44.
For `CSc1ccc2cc(-c3nc4ccccc4n3C)c(=O)oc2c1` [S7], the yellow index reads like this: under setting [7], 12.91; under setting [8], 10.75; under setting [9], 10.37; under setting [10], 7.35; under setting [11], 5.91; under setting [12], 6.31.
On to `Cc1cc(=O)oc2cc(SCCO)ccc12` [S5], for which the yellow index runs as follows: under setting [7], 2.70; under setting [8], 1.76; under setting [9], 1.85; under setting [10], 2.30; under setting [11], 0.65; under setting [12], 1.46.
As to `CCOP(=O)(C(=O)c1c(C)cc(C)cc1C)c1ccccc1` (centres unmarked) [PI-4, ethyl(2,4,6-trimethylbenzoyl)-phenyl phosphinate, reference compound], the yellow index by setting is: under setting [1], 0.30; under setting [3], 0.85; under setting [4], 0.57; under setting [5], 0.54; under setting [6], 0.74.
Take `CCSc1ccc(-c2cc3ccc(SCC)cc3oc2=O)cc1` [S3]: the yellow index under setting [7] is listed as 2.28; the yellow index under setting [8] was found to be 1.82; the yellow index under setting [9] is 1.81; the yellow index under setting [10] was determined as 2.34; the yellow index under setting [11] is 1.58; the yellow index under setting [12] is 1.65.
